Measurements: the supplement of paper PMC8728848
The other results are listed elsewhere or left out.

Legend:
Experiment in all cases: glycan array binding signal (z-score within array); higher = stronger binding
Conditions in all cases: glycan notation: IUPAC condensed, linker removed
Neu5Ac(a2-3)GalNAc = target: Neu5Ac(a2-3)GalNAc
Method in brief: (§1)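 Glycan array data were curated from 3228 arrays in the Consortium for Functional Glycomics database and kept only where the protein sequence was available. Glycan names were converted to IUPAC-condensed notation, and columns mapping to the same glycan were averaged. The binding signal is a within-array Z-score, averaged across arrays of the same protein sequence at different concentrations or buffers and across linkers. Negative Z-scores can be read as non-binding.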

[1] = target: Neu5Ac(a2-3)GalNAc(b1-4)GlcNAc
Method in brief: as §1

[2] = target: Neu5Ac(a2-3)[GalNAc(b1-4)]Gal(b1-4)Glc
Method in brief: as §1

[3] = target: Neu5Ac(a2-3)[GalNAc(b1-4)]Gal(b1-4)GlcNAc
Method in brief: as §1

[4] = target: Neu5Ac(a2-3)[GalNAc(b1-4)]Gal(b1-4)GlcNAc(b1-3)GalNAc
Method in brief: as §1

[5] = target: Neu5Ac(a2-3)[Neu5Ac(a2-6)]GalNAc
Method in brief: as §1

Neu5Ac(a2-6)Gal = target: Neu5Ac(a2-6)Gal
Method in brief: as §1

[6] = target: Neu5Ac(a2-6)Gal(b1-3)GlcNAc(b1-3)[Gal(b1-4)GlcNAc(b1-6)]Gal(b1-4)Glc
Method in brief: as §1

Neu5Ac(a2-6)Gal(b1-4)Glc = target: Neu5Ac(a2-6)Gal(b1-4)Glc
Method in brief: as §1

[7] = target: Neu5Ac(a2-6)Gal(b1-4)GlcNAc
Method in brief: as §1

[8] = target: Neu5Ac(a2-6)Gal(b1-4)GlcNAc(b1-2)Man
Method in brief: as §1

[9] = target: Neu5Ac(a2-6)Gal(b1-4)GlcNAc(b1-2)Man(a1-3)Man(b1-4)GlcNAc(b1-4)GlcNAc
Method in brief: as §1

[10] = target: Neu5Ac(a2-6)Gal(b1-4)GlcNAc(b1-2)Man(a1-3)[Gal(b1-4)GlcNAc(b1-2)Man(a1-6)]Man(b1-4)GlcNAc(b1-4)GlcNAc
Method in brief: as §1

[11] = target: Neu5Ac(a2-6)Gal(b1-4)GlcNAc(b1-2)Man(a1-3)[GlcNAc(b1-2)Man(a1-6)]Man(b1-4)GlcNAc(b1-4)GlcNAc
Method in brief: as §1

[12] = target: Neu5Ac(a2-6)Gal(b1-4)GlcNAc(b1-2)Man(a1-3)[GlcNAc(b1-4)][Neu5Ac(a2-6)Gal(b1-4)GlcNAc(b1-2)Man(a1-6)]Man(b1-4)GlcNAc(b1-4)GlcNAc
Method in brief: as §1

[13] = target: Neu5Ac(a2-6)Gal(b1-4)GlcNAc(b1-2)Man(a1-3)[Man(a1-6)]Man(b1-4)GlcNAc(b1-4)GlcNAc
Method in brief: as §1

[14] = target: Neu5Ac(a2-6)Gal(b1-4)GlcNAc(b1-2)Man(a1-3)[Neu5Ac(a2-3)Gal(b1-4)GlcNAc(b1-2)Man(a1-6)]Man(b1-4)GlcNAc(b1-4)GlcNAc
Method in brief: as §1

[15] = target: Neu5Ac(a2-6)Gal(b1-4)GlcNAc(b1-2)Man(a1-3)[Neu5Ac(a2-6)Gal(b1-4)GlcNAc(b1-2)Man(a1-6)]Man(b1-4)GlcNAc(b1-4)GlcNAc
Method in brief: as §1

[16] = target: Neu5Ac(a2-6)Gal(b1-4)GlcNAc(b1-2)Man(a1-3)[Neu5Ac(a2-6)Gal(b1-4)GlcNAc(b1-2)Man(a1-6)]Man(b1-4)GlcNAc(b1-4)[Fuc(a1-6)]GlcNAc
Method in brief: as §1

[17] = target: Neu5Ac(a2-6)Gal(b1-4)GlcNAc(b1-2)Man(a1-6)Man(b1-4)GlcNAc(b1-4)GlcNAc
Method in brief: as §1

[18] = target: Neu5Ac(a2-6)Gal(b1-4)GlcNAc(b1-2)Man(a1-6)[Gal(b1-4)GlcNAc(b1-2)Man(a1-3)]Man(b1-4)GlcNAc(b1-4)GlcNAc
Method in brief: as §1

[19] = target: Neu5Ac(a2-6)Gal(b1-4)GlcNAc(b1-2)Man(a1-6)[GlcNAc(b1-2)Man(a1-3)]Man(b1-4)GlcNAc(b1-4)GlcNAc
Method in brief: as §1

[20] = target: Neu5Ac(a2-6)Gal(b1-4)GlcNAc(b1-2)Man(a1-6)[Man(a1-3)]Man(b1-4)GlcNAc(b1-4)GlcNAc
Method in brief: as §1

[21] = target: Neu5Ac(a2-6)Gal(b1-4)GlcNAc(b1-2)[Neu5Ac(a2-6)Gal(b1-4)GlcNAc(b1-4)]Man(a1-3)[GlcNAc(b1-4)][Neu5Ac(a2-6)Gal(b1-4)GlcNAc(b1-2)[Neu5Ac(a2-6)Gal(b1-4)GlcNAc(b1-6)]Man(a1-6)]Man(b1-4)GlcNAc(b1-4)GlcNAc
Method in brief: as §1

[22] = target: Neu5Ac(a2-6)Gal(b1-4)GlcNAc(b1-2)[Neu5Ac(a2-6)Gal(b1-4)GlcNAc(b1-4)]Man(a1-3)[GlcNAc(b1-4)][Neu5Ac(a2-6)Gal(b1-4)GlcNAc(b1-4)Man(a1-6)]Man(b1-4)GlcNAc(b1-4)GlcNAc
Method in brief: as §1

[23] = target: Neu5Ac(a2-6)Gal(b1-4)GlcNAc(b1-2)[Neu5Ac(a2-6)Gal(b1-4)GlcNAc(b1-6)]Man(a1-6)[Neu5Ac(a2-6)Gal(b1-4)GlcNAc(b1-2)Man(a1-3)][GlcNAc(b1-4)]Man(b1-4)GlcNAc(b1-4)GlcNAc
Method in brief: as §1

[24] = target: Neu5Ac(a2-6)Gal(b1-4)GlcNAc(b1-3)Gal(b1-3)GlcNAc
Method in brief: as §1

[25] = target: Neu5Ac(a2-6)Gal(b1-4)GlcNAc(b1-3)Gal(b1-4)GlcNAc
Method in brief: as §1

[26] = target: Neu5Ac(a2-6)Gal(b1-4)GlcNAc(b1-3)Gal(b1-4)GlcNAc(b1-2)Man(a1-3)[Neu5Ac(a2-6)Gal(b1-4)GlcNAc(b1-3)Gal(b1-4)GlcNAc(b1-2)Man(a1-6)]GalNAc
Method in brief: as §1

[27] = target: Neu5Ac(a2-6)Gal(b1-4)GlcNAc(b1-3)Gal(b1-4)GlcNAc(b1-3)Gal(b1-4)GlcNAc
Method in brief: as §1

[28] = target: Neu5Ac(a2-6)Gal(b1-4)GlcNAc(b1-3)Gal(b1-4)GlcNAc(b1-3)Gal(b1-4)GlcNAc(b1-2)Man(a1-3)[Neu5Ac(a2-6)Gal(b1-4)GlcNAc(b1-3)Gal(b1-4)GlcNAc(b1-3)Gal(b1-4)GlcNAc(b1-2)Man(a1-6)]GalNAc
Method in brief: as §1

[29] = target: Neu5Ac(a2-6)Gal(b1-4)GlcNAc(b1-3)Gal(b1-4)GlcNAc(b1-3)GalNAc
Method in brief: as §1

[30] = target: Neu5Ac(a2-6)Gal(b1-4)GlcNAc(b1-3)Gal(b1-4)GlcNAc(b1-3)[Neu5Ac(a2-6)Gal(b1-4)GlcNAc(b1-3)Gal(b1-4)GlcNAc(b1-6)]GalNAc
Method in brief: as §1

[31] = target: Neu5Ac(a2-6)Gal(b1-4)GlcNAc(b1-3)Gal(b1-4)GlcNAc(b1-6)[Gal(b1-3)]GalNAc
Method in brief: as §1

[32] = target: Neu5Ac(a2-6)Gal(b1-4)GlcNAc(b1-3)Gal(b1-4)[Fuc(a1-3)]GlcNAc(b1-3)Gal(b1-4)[Fuc(a1-3)]GlcNAc
Method in brief: as §1

[33] = target: Neu5Ac(a2-6)Gal(b1-4)GlcNAc(b1-3)GalNAc
Method in brief: as §1

[34] = target: Neu5Ac(a2-6)Gal(b1-4)GlcNAc(b1-3)[Neu5Ac(a2-6)Gal(b1-4)GlcNAc(b1-6)]GalNAc
Method in brief: as §1

[35] = target: Neu5Ac(a2-6)Gal(b1-4)GlcNAc(b1-6)GalNAc
Method in brief: as §1

[36] = target: Neu5Ac(a2-6)Gal(b1-4)GlcNAc(b1-6)[Gal(b1-3)GlcNAc(b1-3)]Gal(b1-4)Glc
Method in brief: as §1

[37] = target: Neu5Ac(a2-6)Gal(b1-4)GlcNAc(b1-6)[Gal(b1-3)]GalNAc
Method in brief: as §1

[38] = target: Neu5Ac(a2-6)Gal(b1-4)GlcNAc6S
Method in brief: as §1

Neu5Ac(a2-6)GalNAc = target: Neu5Ac(a2-6)GalNAc
Method in brief: as §1

[39] = target: Neu5Ac(a2-6)GalNAc(b1-4)GlcNAc
Method in brief: as §1

[40] = target: Neu5Ac(a2-6)GalNAc(b1-4)GlcNAc6S
Method in brief: as §1

[41] = target: Neu5Ac(a2-6)GlcNAc(b1-4)GlcNAc
Method in brief: as §1

B1: Clone646PsrP (Streptococcus pneumoniae) (protein)
chain: MDHHHHHHHHASENLYFQGAPAINASLNIAKSETKVYTGEGVDSVYRVPIYYKLKVTNDGSKLTFTYTVTYVNPKTNDLGNISSMRPGYSIYNSGTSTQTMLTLGSDLGKPSGVKNYITDKNGRQVLSYNTSTMTTQGSGYTWGNGAQMNGFFAKKGYGLTSSWTVPITGTDTSFTFTPYAARTDRIGINYFNGGGKVVESSTTSQSLSQSKSLSVSAS
B1 was tested, and the “glycan array binding signal (z-score)” value (Neu5Ac(a2-3)GalNAc) was 0.419, the “glycan array binding signal (z-score)” value [1] was -0.469 and the “glycan array binding signal (z-score)” value [2] was -0.703. For the same binder, the “glycan array binding signal (z-score)” value [3] was -0.733, the “glycan array binding signal (z-score)” value [4] was 0.037 and the “glycan array binding signal (z-score)” value [5] was 0.674. The “glycan array binding signal (z-score)” value (Neu5Ac(a2-6)Gal) was -0.605, the “glycan array binding signal (z-score)” value [6] was -0.662 and the “glycan array binding signal (z-score)” value (Neu5Ac(a2-6)Gal(b1-4)Glc) was 0.238. The “glycan array binding signal (z-score)” value [7] was 0.155, the “glycan array binding signal (z-score)” value [8] was 0.053 and the “glycan array binding signal (z-score)” value [9] was -0.78. The “glycan array binding signal (z-score)” value [10] was -0.713, the “glycan array binding signal (z-score)” value [11] was -0.916 and the “glycan array binding signal (z-score)” value [12] was -0.966. For the same binder, the “glycan array binding signal (z-score)” value [13] was -0.636, the “glycan array binding signal (z-score)” value [14] was -0.696 and the “glycan array binding signal (z-score)” value [15] was 0.474. For the same binder, the “glycan array binding signal (z-score)” value [16] was -0.326, the “glycan array binding signal (z-score)” value [17] was -0.789 and the “glycan array binding signal (z-score)” value [18] was -0.948. For the same binder, the “glycan array binding signal (z-score)” value [19] was -0.819, the “glycan array binding signal (z-score)” value [20] was -0.989 and the “glycan array binding signal (z-score)” value [21] was -0.332. For the same binder, the “glycan array binding signal (z-score)” value [22] was -0.181, the “glycan array binding signal (z-score)” value [23] was -0.861 and the “glycan array binding signal (z-score)” value [24] was -0.315. The “glycan array binding signal (z-score)” value [25] was -0.326, the “glycan array binding signal (z-score)” value [26] was -0.421 and the “glycan array binding signal (z-score)” value [27] was -0.548. The “glycan array binding signal (z-score)” value [28] was 0.4, the “glycan array binding signal (z-score)” value [29] was -0.755 and the “glycan array binding signal (z-score)” value [30] was -0.729. For the same binder, the “glycan array binding signal (z-score)” value [31] was -0.95, the “glycan array binding signal (z-score)” value [32] was -0.791 and the “glycan array binding signal (z-score)” value [33] was -0.351. For the same binder, the “glycan array binding signal (z-score)” value [34] was -0.551, the “glycan array binding signal (z-score)” value [35] was 0.177 and the “glycan array binding signal (z-score)” value [36] was -0.835. The “glycan array binding signal (z-score)” value [37] was -0.571, the “glycan array binding signal (z-score)” value [38] was 0.19 and the “glycan array binding signal (z-score)” value (Neu5Ac(a2-6)GalNAc) was 0.052. The “glycan array binding signal (z-score)” value [39] was -0.559, the “glycan array binding signal (z-score)” value [40] was -0.113 and the “glycan array binding signal (z-score)” value [41] was -0.941.
